Assay results taken from PubChem BioAssay AID1347076 (National Center for Advancing Translational Sciences (NCATS), 2019).
Screen size: about 400,000 compounds; about 13,000 (3.2%) were called active. The inconclusive results got no clear call from the source; some entries with a clear call stand among them for comparison. Calls come from the whole dose curve; as a rule, active = well fitted cell-killing curve with a large enough effect; inconclusive = small, poorly fitted or top-dose-only effect, or effect the other way; inactive = flat fitted curve, though single readings scatter. Where the call is inconclusive, the potency comes from a doubtful curve fit.

experiment: qHTS assay for MDR1-selective chemotherapeutics: Primary screen using the drug-selected MDR subline cells KB-V1; details: KB-V1 MDR cells viability, CellTiter-Glo, 72 h; activity change, negative = cytotoxicity: at 46.1 µM (top of the series); note: nearly all actives have a fitted effect of over 60% in size
Summary of the method: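 KB-V1, DMEM (no phenol red) + 10% FBS; cpd pin-transferred, titration series; 72 h, 37 degrees C; CellTiter-Glo, luminescence. Data normalized, curve-fit.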
% is set by controls: 0 for no effect and ±100 for the full control effect; potency is the fitted concentration of half-maximal effect.

Compound | Potency | activity change, negative = cytotoxicity
O=C(CN1CCCN(S(=O)(=O)c2ccc(Br)cc2)CC1)Nc1cccc(C(F)(F)F)c1 | inconclusive: 7.31 µM [cytotoxic, partial curve] | –
O=C(CCCc1nc(-c2ccc(Cl)cc2)no1)N1CCOCC1 | active: 9.2 µM | –
CCOc1ccc(C(=O)NC(=S)Nc2cccc(NC(=O)c3ccco3)c2)cc1[N+](=O)[O-] | inconclusive: 25.9 µM [cytotoxic, partial curve, poor fit] | –
COc1cc(C2c3cc4c(cc3OC(NCc3ccccc3)C2C)OCO4)cc(OC)c1OC (configuration not stated) | inconclusive: 0.651 µM [cytotoxic, full curve, poor fit] | –
Cc1ccc(S(=O)(=O)N[C@H](CNCc2ccccc2)C(C)C)cc1 | inconclusive: 9.2 µM [cytotoxic, partial curve] | –
CC(c1nc2ccccc2n1Cc1ccccc1)n1c(-c2cnccn2)nc2ccccc21 (configuration not stated) | inconclusive: 8.2 µM [cytotoxic, partial curve] | –
CCC/C(=C1/c2ccccc2C(=O)N1c1ccccc1)c1cnc(OC)nc1 | inconclusive: 32.6 µM [cytotoxic, single point] | –
COc1ccc(C2C(C#N)=C(N)Oc3cc(N)ccc32)cc1OC (configuration not stated) | inconclusive: 13 µM [cytotoxic, partial curve] | –
COc1ccccc1-c1noc(-c2ccc(NCc3ccco3)c([N+](=O)[O-])c2)n1 | inactive | –
O=[N+]([O-])c1ccc(Cl)c(/C=N/n2c(COc3ccccc3)n[nH]c2=S)c1 | active: 16.4 µM | –
CCCCOCCCNC(=O)C[C@@H]1C[C@@]2(C(=O)OC)CCCCC=C2N(Cc2ccccc2)C1=O | inconclusive: 8.2 µM [cytotoxic, partial curve] | –
CCn1c(=O)c(C(=O)Nn2c(C)nc3ccccc3c2=O)c(O)c2ccccc21 | inconclusive: 7.31 µM [cytotoxic, partial curve] | –
CC1CC(C)CN(C(=O)CCCNC(=O)c2ccc(Cl)cc2)C1 (configuration not stated) | inconclusive: 25.9 µM [cytotoxic, single point] | –
COC(=O)C1=C[C@@H](C(=O)OC)[C@@H]2C3=C(C(=O)[C@@]2(C)NC(=O)c2ccccc2)[C@H](c2ccccc2)[C@@H]2C(=O)NC(=O)[C@@H]2[C@@H]3C1 | inactive | –
COC(=O)c1cc(S(=O)(=O)NCC2CCN(CCc3cccs3)CC2)c[nH]1 | inactive | –
COc1ccc(CN2CC(=O)N(c3ccccc3C)C2=S)cc1OC | inconclusive: 11.6 µM [cytotoxic, partial curve] | –
O=C1CCC(=O)N1OCCCOc1ccc(Br)cc1Cl | inactive | –
Cn1cnc(S(=O)(=O)N2C[C@@H](O)COC[C@@H]3O[C@H](CC(=O)NC4CCC4)CC[C@H]32)c1 | inactive | –
CCOc1ccc(C(=O)c2cn(CC(=O)Nc3ccc4c(c3)OCCO4)c3ccc(F)cc3c2=O)cc1 | inactive | –
CC1(C)NC(=O)N(CC(O)COc2ccc(-c3ccc(C#N)cc3)cc2)C1=O (configuration not stated) | active: 20.6 µM | –
COc1ccc(NC(=O)Cn2c(=O)c3cc(Cl)ccc3n3nncc23)cc1 | inactive | –
CSc1ccc(/C=N/NC(=O)c2sccc2C)cc1 | inconclusive: 16.4 µM [cytotoxic, single point] | –
C=CCN(C(=O)c1ccc2c(c1)nnn2C)c1ccccc1 | inactive | –

Compound | Potency | activity change, negative = cytotoxicity
COc1ccc(NC(=O)c2cc3n(n2)C(C(F)(F)F)CC(c2ccc4c(c2)OCO4)N3)cc1OC (configuration not stated) | active: 16.4 µM | –
COc1ccc(-c2nnc3n(CCc4ccccc4)c(=O)c4ccccc4n23)c(OC)c1 | inconclusive: 29.1 µM [cytotoxic, single point] | –
COc1ccc(-n2cnc3cc(NCc4ccccn4)ccc32)cc1 | inconclusive: 20.6 µM [cytotoxic, single point] | –
CC1CCN(c2oc(-c3ccc(F)cc3)nc2C#N)CC1 | – | inconclusive: -96.4%
N#CCCC1(CCC#N)c2ccccc2C(=O)c2ccccc21 | inconclusive: 29.1 µM [cytotoxic, single point] | –
COc1ccc(-n2nc([N+](=O)[O-])c(=NCCc3ccc(C)cc3)n2O)cc1 | inactive | –
COc1ccc(/C=N/Nc2cc(N3CCCC3)nc(N3CCCC3)n2)cc1 | inconclusive: 20.6 µM [cytotoxic, single point] | –
ClC(Cl)(Cl)C1=NCc2nnn(Cc3ccccc3)c2N1 | inactive | –
CCN(CC)CCCn1c2c(c(SCC(=O)Nc3nc4ccccc4s3)nc1=O)CCC2 | inactive | –
CC(=O)c1cc2c(cc1NS(=O)(=O)c1ccc(C)cc1)OCO2 | inconclusive: 35.5 µM [cytotoxic, single point] | –
Cc1ccc(NC(=O)CN(c2ccc(Cl)cc2)S(=O)(=O)c2cc([N+](=O)[O-])ccc2Cl)cc1 | inconclusive: 29.1 µM [cytotoxic, single point] | –
CC(C)C(=O)Nc1nnc(Cc2ccccc2)s1 | inconclusive: 18.4 µM [cytotoxic, single point] | –
O=C(CCCn1c(=S)[nH]c2ccccc2c1=O)N1CCOCC1 | inconclusive: 20.6 µM [cytotoxic, partial curve, poor fit] | –
Cc1cc(C)nc(S/C=C/C(=O)c2ccccc2F)n1 | inconclusive: 29.1 µM [cytotoxic, single point] | –
CC(=O)Nc1ccc(N2C(C(C)=O)=NN(c3ccc(Cl)cc3)C2c2sccc2C)cc1 (configuration not stated) | inconclusive: 29.1 µM [cytotoxic, single point] | –
CC(NC(=O)COC(=O)c1ccc2c(=O)n3c(nc2c1)CCCCC3)c1ccccc1 (configuration not stated) | – | inconclusive: -6.23%
CC(=O)C1=CCC(c2cccc3ccccc23)N(S(=O)(=O)c2ccc(C)cc2)C1 (configuration not stated) | active: 10.3 µM | –
Cc1ccc(C2=Nc3cccnc3C(c3ccccc3)=NN2)cc1 | inconclusive: 11.6 µM [cytotoxic, partial curve] | –
COc1cc(NC(=O)CSCc2ccc(Cl)cc2)c(C(=O)O)cc1OC | inconclusive: 29.1 µM [rising, single point] | –
CC(CN1CCCC1)OC(=O)Cc1ccc(Cl)cc1 (configuration not stated) | inconclusive: 9.2 µM [rising, partial curve, poor fit] | –
COc1cc(C2C3=C(CC(C)(C)CC3=O)Nc3ccccc3N2C(C)=O)cc(OC)c1OC (configuration not stated) | inconclusive: 5.8 µM [rising, full curve] | –
Cc1ccc(-c2noc(CCC(=O)NC3CCCC3)n2)cc1 | inactive | –
COc1ccc(C(=O)CSc2nnc(NC(=O)C3CC(=O)N(c4ccccc4)C3)s2)cc1 (configuration not stated) | inactive | –

3 entries already listed, ordered by formula weight, falling.
Compound | Potency | activity change, negative = cytotoxicity
CCN(CC)CCCn1c2c(c(SCC(=O)Nc3nc4ccccc4s3)nc1=O)CCC2 | inactive | –
O=[N+]([O-])c1ccc(Cl)c(/C=N/n2c(COc3ccccc3)n[nH]c2=S)c1 | active: 16.4 µM | –
ClC(Cl)(Cl)C1=NCc2nnn(Cc3ccccc3)c2N1 | inactive | –

Remaining list, next part.

Compound | Potency | activity change, negative = cytotoxicity
O=C(O)C1CCCN1S(=O)(=O)c1ccc(Cl)cc1 (configuration not stated) | inconclusive: 2.91 µM [rising, partial curve, poor fit] | –
Cc1ccc(/C=C2\C(=O)NC(=O)N2C)o1 | inconclusive: 16.4 µM [cytotoxic, single point] | –
CCOC(=O)[C@]12CCC=C1N(Cc1ccc3c(c1)OCO3)C(=O)[C@H](CC(=O)NCc1cccc3ccccc13)C2 | inactive | –
CN(C)C(=O)c1ccc(/C=C/c2ccnc3ccccc23)cc1 | inconclusive: 29.1 µM [cytotoxic, single point] | –
COc1ccc(NC(=O)NCCCN2CCC(Cc3ccccc3)CC2)cc1 | inconclusive: 14.6 µM [cytotoxic, partial curve] | –
Cc1ccc(-n2nnnc2SC(C)C(=O)NCC(=O)Nc2ccc(F)c(F)c2F)c(C)c1 (configuration not stated) | inactive | –
CC1=CCC2C(=O)N(c3ccc(C)c(Br)c3)C(=O)C2C1 (configuration not stated) | inconclusive: 6.51 µM [rising, full curve, poor fit] | –
NS(=O)(=O)c1ccc(NC(=O)c2cc(-c3cc(Cl)ccc3O)n[nH]2)cc1 | inactive | –
CCCCCCC1CCC(C(=O)NC(C(=O)O)C(C)C)CC1 (configuration not stated) | inactive | –
O=C(CSc1oc(-c2ccco2)nc1S(=O)(=O)c1ccc(Cl)cc1)Nc1ccc(F)cc1 | inconclusive: 20.6 µM [rising, single point] | –
COc1ccc(C(=O)Nc2ccccc2C(=O)Nc2cccnc2)cc1 | inconclusive: 4.61 µM [cytotoxic, full curve, poor fit] | –
O=C(CCc1nc2ccccc2c(=O)[nH]1)N1CCN(c2ccc(F)cc2)CC1 | inconclusive: 3.26 µM [cytotoxic, partial curve, poor fit] | –
COc1cc(C(=O)NC2CCCc3ccccc32)cc(OC)c1OC (configuration not stated) | inconclusive: 16.4 µM [cytotoxic, partial curve] | –
O=C(CC(=O)c1ccccc1)CS(=O)(=O)c1ccccc1 | active: 11.6 µM | –
CN(C(=O)CSc1nnn(C)n1)c1ccccc1 | inconclusive: 8.2 µM [rising, partial curve, poor fit] | –
CC(C)(C)NC(=O)NC(=O)CN1CCN(S(=O)(=O)/C=C/c2ccccc2)CC1 | inconclusive: 5.17 µM [cytotoxic, partial curve, poor fit] | –
O=C(NCc1ccc(F)cc1)c1ccc(CS(=O)Cc2ccccc2Cl)o1 (configuration not stated) | inconclusive: 25.9 µM [cytotoxic, partial curve, poor fit] | –
COc1ccc(-c2cc(C(=O)N3CCN(c4ccccc4F)CC3)c3ccccc3n2)c(OC)c1 | inconclusive: 29.1 µM [cytotoxic, single point] | –
CC(=O)N1N=C(c2cccnc2)OC1c1ccc(C(C)C)cc1 (configuration not stated) | inconclusive: 29.1 µM [rising, single point] | –
COc1ccccc1CNc1nc(NCCOc2ccccc2Cl)c2sccc2n1 | inconclusive: 2.59 µM [cytotoxic, full curve, poor fit] | –
CCC(C(=O)NCc1ccccc1)n1c(-c2ccc3c(c2)CCO3)nc2ccccc21 (configuration not stated) | inconclusive: 2.31 µM [cytotoxic, partial curve, poor fit] | –

Gathered by group, those above with a CF3 group
Compound | Potency | activity change, negative = cytotoxicity
O=C(CN1CCCN(S(=O)(=O)c2ccc(Br)cc2)CC1)Nc1cccc(C(F)(F)F)c1 | inconclusive: 7.31 µM [cytotoxic, partial curve] | –
COc1ccc(NC(=O)c2cc3n(n2)C(C(F)(F)F)CC(c2ccc4c(c2)OCO4)N3)cc1OC (configuration not stated) | active: 16.4 µM | –
